Reference: patent US9730984 (dated 2017)
HELM strings list residues between dots; [ac] is acetyl, [am] amide, other brackets name non-standard units.

Assay: general procedure: Fmoc solid-phase peptide synthesis; NH2-Lys(Boc)-2-chloro-Trityl Resin; HBTU/HOBT/NMM
Details: whole synthesis, high-performance liquid chromatography

PEPTIDE1{E.A.R.P.A.L.L.T.S.R.L.R.F.I.P.K}$$$$V2.0
final HPLC purity: 95% or higher
